Laboratory results as given in article PMC6337261 (Molecules, 2019).

Test: general procedure: Fmoc solid-phase peptide synthesis
Conditions: whole synthesis, overall

With Acetyl-Asp-Glu-Val-Aspψ(CH2NH)-Ala-NH2 as the substance, how does the isolated yield read?
The isolated yield was 27% overall yield.

For “Hexynoyl-Asp-Glu-Val-Asp(triazolo)-Ala-Bpa-Gly-NH2”, which isolated yield is on record?
Its isolated yield is 13% overall yield.

With “Hexynoyl-Asp-Glu-Val-Aspψ(CH2NH)-Ala-Bpa-NH2” as the substance, how does the isolated yield read?
Its isolated yield is 7% overall yield.

For “Hexynoyl-Asp-Glu-Val-Aspψ(CH2NH)-Ala-NH2”, which isolated yield is on record?
The isolated yield was 22% overall yield.

With “Hexynoyl-Asp-Glu-Val-Aspψ(CH2NH)-Ala-p-azido-Phe-NH2” as the substance, how does the isolated yield read?
Its isolated yield is 11% overall yield.

Which isolated yield does the source give for “Hexynoyl-Asp-Glu-Val-Aspψ(CH2NH)-Ala-photoLeu-NH2” here?
Its isolated yield is 8% overall yield.

Which isolated yield does the source give for “Hexynoyl-Bpa-Asp-Glu-Val-Asp(triazolo)-Ala-NH2” here?
The isolated yield was 2% overall yield.

Which isolated yield does the source give for “Hexynoyl-Bpa-Asp-Glu-Val-Aspψ(CH2NH)-Ala-NH2” here?
Its isolated yield is 4% overall yield.

With “Hexynoyl-p-azido-Phe-Asp-Glu-Val-Aspψ(CH2NH)-Ala-NH2” as the substance, how does the isolated yield read?
The isolated yield was 1% overall yield.

Which isolated yield does the source give for “Hexynoyl-photoLeu-Asp-Glu-Val-Aspψ(CH2NH)-Ala-NH2” here?
Its isolated yield is 7% overall yield.
